Experimental data: US10253080B2 (Zealand Pharma A/S, priority 2012, dated 2019)

Legend:
[1] = general procedure: Fmoc solid-phase peptide synthesis; TentaGel S Ram S; conditions: whole synthesis, analytical HPLC and MS, scale of the general procedure 1 g resin, 0.25 mmol/g; run 1
[2] = general procedure: Fmoc solid-phase peptide synthesis; TentaGel S Ram (0.25 mmol/g); TentaGel S resins 0.22-0.31 mmol/g (S-Ram, S RAM-Lys(Boc)Fmoc, S PHB); conditions: whole synthesis, analytical HPLC and MS, scale of the general procedure 1 g resin, run 1

In the case of “H-HGDGSFSDEMNTILDGQAARDFINWLIQTK-NH2 [MW 3377.61]”, the “final HPLC purity” value [1] is reported as 45% and the “final HPLC purity” value [2] is reported as 89%.
